Results deposited as PubChem BioAssay AID1159584 (Peter MacCallum Cancer Centre, 2016)

- Aim: 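Genes that CDH1-null MCF10A cells selectively depend on to survive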 (primary screen)
- Cells: human MCF10A breast epithelial cells, parental and CDH1-null
- Knock-down reagent: siRNA against human genes
- Detection: 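ATP luminescence (CellTiter-Glo) viability per line relative to mean mock wells over all plates, and the ratio of CDH1-null to parental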
- Reading the numbers: CDH1-null / parental viability ratio: higher = CDH1-null cells survive relatively better than parental; CDH1-null viability vs mock: higher = more viable CDH1-null cells
This is an unselected part of about 18,000 deposited reagents. The numbers tell different reagents against one gene apart. Further read-outs or replicates are left out here. The record does not give: the amount of reagent, the time to read-out.

target	reagent no.	CDH1-null / parental viability ratio	CDH1-null viability vs mock (fraction of mock)
HLA-DOA (major histocompatibility complex, class II, DO alpha)	1	1.46	1.05
MERTK (MER proto-oncogene, tyrosine kinase)	1	0.87	0.61
IL7 (interleukin 7)	1	0.9	0.74
SZT2 (SZT2 subunit of KICSTOR complex)	1	0.91	0.78
SZT2 (SZT2 subunit of KICSTOR complex)	2	1.06	0.74
ZRANB1 (zinc finger RANBP2-type containing 1)	1	1.02	0.88
ZBTB7A (zinc finger and BTB domain containing 7A)	1	0.84	0.72
XIRP2 (xin actin binding repeat containing 2)	1	1.03	0.76
USP33 (ubiquitin specific peptidase 33)	1	1.39	0.86
RHOBTB1 (Rho related BTB domain containing 1)	1	1.01	0.88
PGLYRP3 (peptidoglycan recognition protein 3)	1	1.03	0.7
NARF (nuclear prelamin A recognition factor)	1	1.14	0.8
OR4D10 (olfactory receptor family 4 subfamily D member 10)	1	1.11	0.71
OR1E2 (olfactory receptor family 1 subfamily E member 2)	1	1	0.93
COX18 (cytochrome c oxidase assembly factor COX18)	1	0.91	0.75
IFI44L (interferon induced protein 44 like)	1	1.08	0.81
ADGRE4P (adhesion G protein-coupled receptor E4, pseudogene)	1	1.29	0.98
SLC16A12	1	1.37	0.96
HMOX2 (heme oxygenase 2)	1	0.76	0.65
POMT1 (protein O-mannosyltransferase 1)	1	1.28	1.11
NHLRC3 (NHL repeat containing 3)	1	1.04	0.84
SLC44A3	1	0.97	1.02
METTL17 (methyltransferase like 17)	1	0.95	0.94
ZNF792 (zinc finger protein 792)	1	0.8	0.61
MTRFR (mitochondrial translation release factor in rescue)	1	1.04	0.98
SFT2D1 (SFT2 domain containing 1)	1	1.25	1
FGF3 (fibroblast growth factor 3)	1	0.89	0.94
SLC16A8	1	0.87	0.47
RAD51C (RAD51 paralog C)	1	1.06	1.04
ZNF625 (zinc finger protein 625)	1	0.86	0.54
ZC3H11A (zinc finger CCCH-type containing 11A)	1	0.97	0.74
UBE2N (ubiquitin conjugating enzyme E2 N)	1	1.45	0.71
ABHD3 (abhydrolase domain containing 3, phospholipase)	1	0.91	0.81
ENTPD1 (ectonucleoside triphosphate diphosphohydrolase 1)	1	1.03	0.8
CCDC107 (coiled-coil domain containing 107)	1	1.1	0.9
FLOT2 (flotillin 2)	1	0.98	0.65
HECA (HECA ribonucleoprotein granule regulator)	1	1.13	0.86
FBXO45 (F-box protein 45)	1	1.13	1.06
CELF2 (CUGBP Elav-like family member 2)	1	1	0.8
RNF135 (ring finger protein 135)	1	0.99	0.99
KLHL20 (kelch like family member 20)	1	1.17	0.48
SMIM19 (small integral membrane protein 19)	1	1.16	0.85
GEMIN5 (gem nuclear organelle associated protein 5)	1	0.76	0.68
UBE2Q2 (ubiquitin conjugating enzyme E2 Q2)	1	1.15	0.91
FAM234B (family with sequence similarity 234 member B)	1	0.98	0.92
MSRB1 (methionine sulfoxide reductase B1)	1	1.11	0.62
SLC12A8	1	0.97	0.96
SRD5A3 (steroid 5 alpha-reductase 3)	1	0.93	0.84
STARD5 (StAR related lipid transfer domain containing 5)	1	1.25	0.6
C22orf31 (chromosome 22 open reading frame 31)	1	1.06	0.93
OR5AS1 (olfactory receptor family 5 subfamily AS member 1)	1	1.04	0.8
UBE2C (ubiquitin conjugating enzyme E2 C)	1	1.02	0.88
PIK3CA	1	0.78	0.59
CHPF (chondroitin polymerizing factor)	1	1.01	0.99
CROT (carnitine O-octanoyltransferase)	1	1.05	0.92
TCF7L2 (transcription factor 7 like 2)	1	0.98	0.84
OR13G1 (olfactory receptor family 13 subfamily G member 1)	1	0.97	0.66
KLHL17 (kelch like family member 17)	1	0.98	0.92
IDH3B	1	1.08	0.8
XCL2 (X-C motif chemokine ligand 2)	1	0.76	0.53
ATG4D (autophagy related 4D cysteine peptidase)	1	1.23	0.86
SEC16A (SEC16 homolog A, endoplasmic reticulum export factor)	1	1.21	0.8
H2AC19 (H2A clustered histone 19)	1	0.65	0.44
KISS1R (KISS1 receptor)	1	1.53	0.92
UCK2 (uridine-cytidine kinase 2)	1	1.04	1.07
IDH3A (isocitrate dehydrogenase (NAD(+)) 3 catalytic subunit alpha)	1	0.92	0.55
CRTC1 (CREB regulated transcription coactivator 1)	1	0.95	0.54
DDIAS (DNA damage induced apoptosis suppressor)	1	1.02	0.66
KLHL2 (kelch like family member 2)	1	1.78	0.89
TRAPPC2L (trafficking protein particle complex subunit 2L)	1	1.33	0.48
GDPGP1 (GDP-D-glucose phosphorylase 1)	1	0.8	0.69
NSUN3 (NOP2/Sun RNA methyltransferase 3)	1	0.59	0.58
ZCCHC2 (zinc finger CCHC-type containing 2)	1	1	0.6
DCLK1 (doublecortin like kinase 1)	1	0.86	0.64
CNIH1 (cornichon family member 1)	1	1.04	0.78
VKORC1 (vitamin K epoxide reductase complex subunit 1)	1	0.99	0.67
ZNF232 (zinc finger protein 232)	1	1.02	0.86
TLDC2 (TBC/LysM-associated domain containing 2)	1	0.97	0.83
HJV (hemojuvelin BMP co-receptor)	1	1.09	1
SLC22A11	1	1.14	1.12
MYOF (myoferlin)	1	1.12	0.84
TRIM24 (tripartite motif containing 24)	1	1.03	0.66
CPA5 (carboxypeptidase A5)	1	1.17	0.98
TICRR (TOPBP1 interacting checkpoint and replication regulator)	1	0.9	0.65
ZC3H8 (zinc finger CCCH-type containing 8)	1	1.09	0.74
TMEM115 (transmembrane protein 115)	1	0.96	0.76
ARMC2 (armadillo repeat containing 2)	1	0.82	0.66
